Results taken from article PMC8941131.
Residue numbers refer to the chain shown, from its start. No constants are given. Whether binding was seen depends on the method and setting. Binding seen in cells or lysates may run through a third protein. Some results given as binding are weak or reduced against the parent protein; the word gives no strength. For some of these results: Sequences can lack the tags named with a protein.

Chains of the proteins cited; added tags and fusions are not shown.
UniProt P31749: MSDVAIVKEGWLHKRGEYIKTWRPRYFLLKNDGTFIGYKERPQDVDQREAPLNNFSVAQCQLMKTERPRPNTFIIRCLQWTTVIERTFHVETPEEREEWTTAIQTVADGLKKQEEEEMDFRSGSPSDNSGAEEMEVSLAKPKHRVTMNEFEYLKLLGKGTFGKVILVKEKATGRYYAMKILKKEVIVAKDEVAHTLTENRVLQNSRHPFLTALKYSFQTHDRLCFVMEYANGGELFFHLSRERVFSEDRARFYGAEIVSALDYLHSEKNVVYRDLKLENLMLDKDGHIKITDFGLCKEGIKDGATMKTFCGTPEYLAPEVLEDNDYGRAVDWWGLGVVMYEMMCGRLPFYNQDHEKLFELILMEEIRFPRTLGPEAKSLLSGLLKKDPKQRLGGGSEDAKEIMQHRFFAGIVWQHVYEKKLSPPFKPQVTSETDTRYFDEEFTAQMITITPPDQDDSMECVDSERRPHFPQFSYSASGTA

Key:
Test in all cases: co-IP; immunoprecipitation (anti-Flag or anti-HA agarose, 2-4 h at 4 °C) from whole cell lysates of co-transfected 293T cells; EBC lysis buffer, four washes with NETN buffer, immunoblot; in some panels with HA-S6K1-R3A or knock-down of 14-3-3γ
Flag-PDK1-R546P = biological target: T1, Flag-PDK1-R546P (UniProt O15530)
T1 sequence: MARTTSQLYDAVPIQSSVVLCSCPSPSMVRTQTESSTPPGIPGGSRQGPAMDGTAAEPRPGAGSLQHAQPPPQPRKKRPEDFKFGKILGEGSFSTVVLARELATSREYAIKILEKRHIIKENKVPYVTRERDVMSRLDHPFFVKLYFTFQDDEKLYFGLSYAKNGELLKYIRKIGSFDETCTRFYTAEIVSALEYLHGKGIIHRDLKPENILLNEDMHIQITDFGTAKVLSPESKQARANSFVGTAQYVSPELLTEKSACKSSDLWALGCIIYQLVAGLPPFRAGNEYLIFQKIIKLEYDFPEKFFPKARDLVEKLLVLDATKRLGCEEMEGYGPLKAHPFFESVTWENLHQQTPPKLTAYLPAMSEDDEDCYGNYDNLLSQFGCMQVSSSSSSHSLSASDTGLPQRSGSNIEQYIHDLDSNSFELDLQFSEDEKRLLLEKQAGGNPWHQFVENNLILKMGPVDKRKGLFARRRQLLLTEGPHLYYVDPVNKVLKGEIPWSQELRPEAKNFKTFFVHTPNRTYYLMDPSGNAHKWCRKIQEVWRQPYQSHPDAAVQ

PDK1-S549D-P551A = biological target: T2, PDK1-S549D-P551A (UniProt O15530)
T2 sequence: T1 sequence with P546R, S549D, P551A

Flag-PDK1-S549N = biological target: T3, Flag-PDK1-S549N (UniProt O15530)
T3 sequence: T1 sequence with P546R, S549N

PDK1-P551Q = biological target: T4, PDK1-P551Q (UniProt O15530)
T4 sequence: T1 sequence with P546R, P551Q

Measured: binding

HA-AKT1 (from UniProt P31749 1-480) (enzyme)
binds: all assays above
